Results as given in PubChem BioAssay (Tox21).
Inconclusive results, whose numbers are uncertain, are shown with a selection of clear calls. Potencies beside an inconclusive call are fits to weak or partial responses and may not hold up. Where a structure was tested more than once in an assay, its records may differ in their call. Activity calls are given as the source filed them. Calls follow the shape of the dose curve; as a rule, active = well fitted inhibition curve with a large enough effect in the repeat runs; inconclusive = weak or mixed curves; inactive = no such curve, though single readings can be large or run the other way.

The chains behind the UniProt entries cited, without tags or fusion partners.
UniProt P10635, whole entry, looked up: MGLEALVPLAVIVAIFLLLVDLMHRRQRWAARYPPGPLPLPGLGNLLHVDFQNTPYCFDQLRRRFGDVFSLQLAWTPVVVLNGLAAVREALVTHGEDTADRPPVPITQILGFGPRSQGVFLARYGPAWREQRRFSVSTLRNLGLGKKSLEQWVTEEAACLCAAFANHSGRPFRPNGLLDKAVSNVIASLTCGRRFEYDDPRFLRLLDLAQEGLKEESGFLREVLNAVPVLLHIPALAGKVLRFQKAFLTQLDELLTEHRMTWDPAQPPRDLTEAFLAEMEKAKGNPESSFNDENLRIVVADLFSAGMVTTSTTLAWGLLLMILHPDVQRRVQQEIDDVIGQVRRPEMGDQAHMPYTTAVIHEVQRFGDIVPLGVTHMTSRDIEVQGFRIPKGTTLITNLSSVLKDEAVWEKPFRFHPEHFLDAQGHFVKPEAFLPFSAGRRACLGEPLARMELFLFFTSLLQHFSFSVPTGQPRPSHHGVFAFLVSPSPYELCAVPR
UniProt P33261, whole entry, looked up: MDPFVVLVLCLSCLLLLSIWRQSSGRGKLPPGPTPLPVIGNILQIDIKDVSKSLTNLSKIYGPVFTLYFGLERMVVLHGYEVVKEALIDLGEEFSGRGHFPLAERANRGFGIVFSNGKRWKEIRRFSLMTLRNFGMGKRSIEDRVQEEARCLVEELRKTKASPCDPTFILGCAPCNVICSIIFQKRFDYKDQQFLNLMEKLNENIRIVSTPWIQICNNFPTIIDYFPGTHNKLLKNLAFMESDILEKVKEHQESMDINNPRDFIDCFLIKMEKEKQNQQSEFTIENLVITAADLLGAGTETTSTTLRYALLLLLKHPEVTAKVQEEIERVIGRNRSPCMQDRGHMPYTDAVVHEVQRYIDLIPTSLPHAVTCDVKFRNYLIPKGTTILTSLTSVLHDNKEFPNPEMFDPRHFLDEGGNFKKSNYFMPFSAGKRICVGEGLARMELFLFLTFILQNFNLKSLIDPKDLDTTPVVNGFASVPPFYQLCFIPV
UniProt P11712, whole entry, looked up: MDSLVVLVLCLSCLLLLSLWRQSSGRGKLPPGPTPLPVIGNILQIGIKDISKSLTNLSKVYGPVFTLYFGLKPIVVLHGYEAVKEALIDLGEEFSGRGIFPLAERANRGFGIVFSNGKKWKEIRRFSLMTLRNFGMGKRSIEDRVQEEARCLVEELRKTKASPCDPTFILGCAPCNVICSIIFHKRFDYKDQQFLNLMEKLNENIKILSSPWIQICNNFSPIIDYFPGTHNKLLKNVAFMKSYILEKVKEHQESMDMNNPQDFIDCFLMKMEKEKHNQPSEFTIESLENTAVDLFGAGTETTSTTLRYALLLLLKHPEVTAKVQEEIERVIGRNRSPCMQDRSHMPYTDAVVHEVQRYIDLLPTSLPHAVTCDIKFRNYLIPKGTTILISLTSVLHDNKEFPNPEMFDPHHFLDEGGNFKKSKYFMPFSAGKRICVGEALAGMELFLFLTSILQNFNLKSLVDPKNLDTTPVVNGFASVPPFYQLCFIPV

molecular target: Cytochrome P450 2D6 (Homo sapiens) (UniProt P10635); test: Cytochrome P450 Family 2 Subfamily D Member 6 (CYP2D6) small molecule antagonists: luciferase reporter qHTS assay (AID 1671196); conditions: P450-Glo CYP2D6 enzyme assay, luciferin luminescence, 1 h; series mostly up to 115 µM; activity change, negative = inhibition: at the top concentration; also: nearly all actives have a fitted effect of over 50% in size
How it was run: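 Luminogenic proluciferin substrate, CYP2D6 enzyme; 10 min RT preincubation with compound, NADPH regeneration system added, 1 h RT. Stop/detection reagent, 20 min RT, luminescence read (RLU). Signal proportional to CYP activity.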
% is scaled to controls: 0 for no effect and ±100 for the full control effect; potency is read from the fitted curve at half-maximal effect.

| Compound | activity change, negative = inhibition | Potency |
| --- | --- | --- |
| O=[N+]([O-])c1cccc(C(F)(F)F)c1 | inactive: 2.03% |  |
| C/C=C(\C)C(C)=O | inactive: 2.9% |  |
| O=C(O)c1ccc(O)cc1O | inactive: -12% |  |
| CN[C@@H]1[C@H](O)[C@H](NC)[C@H]2O[C@@]3(O)C(=O)C[C@@H](C)O[C@H]3O[C@@H]2[C@H]1O |  | inconclusive: 21.9 µM [inhibitor, partial curve, poor fit] |
| O=C(O)c1ccc(OCCCOc2ccc(C(=O)O)cc2)cc1 |  | active: 8.71 µM |
| Cc1nc2c([nH]1)c(=O)n(C)c(=O)n2Cc1ccco1 |  | inconclusive: 24.5 µM [inhibitor, partial curve] |
| CCCCCCC(O)CCCCCCCCCCC(=O)OC (configuration not stated) | inactive: -10.1% |  |
| Nc1ccc(F)cc1 | inactive: -8.84% |  |
| Cc1cc(C)c(S(=O)(=O)O)cc1N=Nc1cc(S(=O)(=O)O)c2ccccc2c1O |  | inconclusive: 39.9 µM [inhibitor, partial curve] |
| CCOCCOCCOCC |  | inconclusive: 63.3 µM [inhibitor, partial curve, poor fit] |
| CCCCCCCCC1CCC(=O)O1 (configuration not stated) |  | inconclusive: 71 µM [inhibitor] |
| NC(=O)c1ccccc1[N+](=O)[O-] | inactive: -9.76% |  |
| O=S(=O)(O)c1ccc(Cl)cc1 |  | inconclusive: 69.7 µM [inhibitor, partial curve] |
| N[C@@H](COP(=O)(O)O)C(=O)O |  | inconclusive: 19 µM [inhibitor, single point] |
| CCN(CC)CCNC(=O)COc1ccc(OC)cc1 |  | active: 13.8 µM |
| CC(C)(C)NCC(O)COc1cccc2c1CCC(=O)N2 (configuration not stated) | inactive: -7.99% [at 53 µM] |  |
| CC(=O)N(CC(O)CO)c1c(I)c(C(=O)NCCO)c(I)c(C(=O)NCC(O)CO)c1I (configuration not stated) | inactive: -1.44% [at 53 µM] |  |
| CC(C)C1CCC(C(=O)N[C@H](Cc2ccccc2)C(=O)O)CC1 (some centres not stated) | inactive: -15.7% [at 53 µM] |  |
| O=[N+]([O-])c1nccn1CO[C@@H](CO)[C@H](O)CO |  | active: 38.9 µM |
| O=C(O)c1ccc2cc(C(=O)O)ccc2c1 | inactive: -14% |  |
| COC(OC)OC | inactive: -6.1% |  |
| O=C1CC[C@@H](C(=O)O)N1 |  | inconclusive: 38.9 µM [inhibitor, single point] |
| CCOc1ccc2ccccc2c1C(=O)N[C@@H]1C(=O)N2[C@@H]1SC(C)(C)[C@@H]2C(=O)O | inactive: -6.01% [at 53 µM] |  |
| CCNCCO | inactive: -2.97% |  |
| CC1(C)CC(N)CC(C)(CN)C1 (configuration not stated) |  | active: 36.1 µM and inactive |
| COC(=O)CCc1ccc(OCC(O)CNC(C)C)cc1 (configuration not stated) |  | inconclusive: 17.4 µM [inhibitor, partial curve] |
| C=CCCCCCCCCCCCCCC | inactive: -17.7% [at 23.6 µM] |  |
| CC(C)(C)NCC(O)COc1cccc2c1C[C@H](O)[C@H](O)C2 (some centres not stated) | inactive: -5.67% [at 53 µM] |  |
| CN1CC(=O)N/C1=N/C(=O)Nc1cccc(Cl)c1 |  | inconclusive: 27.5 µM [inhibitor, partial curve] |

Part of the list above, bar-delimited:
Compound | activity change, negative = inhibition | Potency
COC(OC)OC | inactive: -6.1% | 
O=C1CC[C@@H](C(=O)O)N1 |  | inconclusive: 38.9 µM [inhibitor, single point]
CCOc1ccc2ccccc2c1C(=O)N[C@@H]1C(=O)N2[C@@H]1SC(C)(C)[C@@H]2C(=O)O | inactive: -6.01% [at 53 µM] | 
CCNCCO | inactive: -2.97% | 

molecular target: Cytochrome P450 2C19 (Homo sapiens) (UniProt P33261); test: Cytochrome P450 Family 2 Subfamily C Member 19 (CYP2C19) small molecule antagonists: luciferase reporter qHTS assay (AID 1671197); conditions: P450-Glo CYP2C19 enzyme, luciferin luminescence, 1 h; series mostly up to 115 µM; activity change, negative = inhibition: at the top concentration; also: nearly all actives have a fitted effect of over 65% in size
How it was run: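 Luminescent readout of CYP2C19 activity: luciferin product detected 20 min after adding detection reagent. Before that, compound and enzyme-substrate mix preincubated 10 min at room temperature; NADPH-regenerating system started a 1 h, 37C reaction. Ketoconazole as positive control.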

| Compound | Potency | activity change, negative = inhibition |
| --- | --- | --- |
| Cc1ccc(C(C)C)cc2c(C)ccc1-2 | inconclusive: 34.7 µM [inhibitor, single point] |  |
| CC(C)C1CCC(C(=O)N[C@H](Cc2ccccc2)C(=O)O)CC1 (some centres not stated) | inconclusive: 9.77 µM [inhibitor, single point] |  |
| COC(=O)CCc1ccc(OCC(O)CNC(C)C)cc1 (configuration not stated) |  | inactive: -8.75% [at 52.9 µM] |
| CC(C)(C)NCC(O)COc1cccc2c1C[C@H](O)[C@H](O)C2 (some centres not stated) |  | inactive: 6.26% [at 52.9 µM] |

molecular target: Cytochrome P450 2C9 (Homo sapiens) (UniProt P11712); test: Cytochrome P450 Family 2 Subfamily C Member 9 (CYP2C9) small molecule antagonists: luciferase reporter qHTS assay (AID 1671198); conditions: P450-Glo CYP2C9 enzyme assay, luciferin luminescence; series mostly up to 115 µM; activity change, negative = inhibition: at the top concentration; also: nearly all actives have a fitted effect of over 50% in size
How it was run: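 P450-Glo proluciferin substrate with CYP2C9 enzyme; 10 min RT preincubation, then NADPH regeneration 1 h at 37C; luciferin detection reagent 20 min RT, luminescence in relative luminescence units.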

| Compound | Potency | activity change, negative = inhibition |
| --- | --- | --- |
| COc1ccc(C2C(=O)c3ccccc3C2=O)cc1 | inconclusive: 43.6 µM [inhibitor, single point] |  |
| CCCc1ccc(N)cc1 | inconclusive: 63.3 µM [inhibitor, partial curve] |  |
| Brc1nc2ccccc2s1 | inconclusive: 70.7 µM [inhibitor, single point] |  |
| CCCCCc1ccc(Cl)cc1 | inconclusive: 44.8 µM [inhibitor, partial curve, poor fit] |  |
| CCOC(=O)CS | inconclusive: 65.1 µM [inhibitor, partial curve] |  |
| Cc1ccc(C(C)C)cc2c(C)ccc1-2 | inconclusive: 19.5 µM [inhibitor, full curve] |  |
| CC(C)C1CCC(C(=O)N[C@H](Cc2ccccc2)C(=O)O)CC1 (some centres not stated) | active: 11 µM |  |
| C=CCCCCCCCCCCCCCCCC |  | inactive: 3.76% [at 10.5 µM] |
| CN1CC(=O)N/C1=N/C(=O)Nc1cccc(Cl)c1 |  | inactive: -1.75% [at 53 µM] |
